# Laboratory results from PubChem BioAssay AID1671190 (National Center for Advancing Translational Sciences (NCATS), 2021).
# Amino acid sequences for entries named in this document (tags omitted). A change or cut given only in a name is not applied to a line headed by its entry.
# UniProt P18054: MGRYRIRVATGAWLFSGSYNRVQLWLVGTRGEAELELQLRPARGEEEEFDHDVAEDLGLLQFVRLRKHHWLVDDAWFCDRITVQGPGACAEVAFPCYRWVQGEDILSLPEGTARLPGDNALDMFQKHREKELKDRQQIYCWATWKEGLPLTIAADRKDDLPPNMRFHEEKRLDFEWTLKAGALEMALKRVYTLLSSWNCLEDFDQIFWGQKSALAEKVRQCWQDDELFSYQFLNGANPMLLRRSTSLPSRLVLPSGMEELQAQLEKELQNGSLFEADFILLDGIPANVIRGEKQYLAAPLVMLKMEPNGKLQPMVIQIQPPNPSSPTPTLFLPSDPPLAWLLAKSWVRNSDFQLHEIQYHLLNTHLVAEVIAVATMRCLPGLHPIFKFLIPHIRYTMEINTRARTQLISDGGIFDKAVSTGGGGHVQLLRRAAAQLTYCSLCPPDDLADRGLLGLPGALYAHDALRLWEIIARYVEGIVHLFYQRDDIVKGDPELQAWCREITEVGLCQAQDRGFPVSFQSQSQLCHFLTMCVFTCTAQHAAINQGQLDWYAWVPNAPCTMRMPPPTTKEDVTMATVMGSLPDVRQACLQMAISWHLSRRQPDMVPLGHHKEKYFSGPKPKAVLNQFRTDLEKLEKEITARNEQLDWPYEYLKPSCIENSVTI
# Values joined by “and” are separate entries in the source; they are usually repeats but may differ in a detail not shown here. Identical values can stand only once. Among all 580,000 compounds or so, about 6,100 (1.1%) were called active. The inconclusive results got no clear call from the source; some entries with a clear call stand among them for comparison. Calls follow the shape of the dose curve; as a rule, active = well fitted inhibition curve with a large enough effect; inconclusive = small, poorly fitted or top-dose-only effect, or another doubt; inactive = no such curve, though single readings can be large or run the other way. A potency beside an inconclusive call is a rough fit, not a confirmed value.
# Target: Polyunsaturated fatty acid lipoxygenase ALOX12 (Homo sapiens) (UniProt P18054)
# Test: Primary qHTS assay for inhibitors of human arachidonate 12S-lipoxygenase (ALOX12): Round 2
# Settings: purified 12hLO, xylenol orange hydroperoxide absorbance; activity change, negative = inhibition: at 108 µM (top of the series) unless noted
# Outline: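 Hydroperoxide product was detected by ferrous iron/xylenol orange as the 573 to 405 nm absorbance ratio. Arachidonic acid at 40 uM (final) was turned over for 30 min at room temperature by 150 nM human 12hLO, pH 7.0 Hepes buffer, after 15 min compound preincubation.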
# % is scaled to controls: 0 for no effect and ±100 for the full control effect; potency is read from the fitted curve at half-maximal effect.
SMILES,"activity change, negative = inhibition",Potency
COc1ccc(OC)c(C(O)c2ncc(-c3ccc(C(F)(F)F)cc3)[nH]2)c1 (stereo unspecified),inactive: 12.7%,–
C=CCN1CCc2nc(N)sc2CC1,–,"inactive and inconclusive: 16.1 µM [inhibitor, single point] and inconclusive: 14.1 µM [inhibitor, partial curve, poor fit]"
Cc1cccc(N2CCN(c3ccc(C(=O)O)cc3NC(=O)c3ccccc3F)CC2C)c1 (stereo unspecified),–,active: 50.1 µM
COc1ccc(C(=O)N2CCC3(CNc4ccccc4[S+](=O)([O-])N3)C2)cc1 (stereo unspecified),inactive: 32.3%,–
Cc1ccc(-c2cc3ccccn3c2)cc1C,–,"inconclusive: 15.8 µM [inhibitor, full curve]"
Cc1ccc2nc(NC(=O)c3cccs3)sc2c1,inactive: 2.44%,–
CCCc1cc(N2CCC(NCCOC(C)C)CC2)nc(C)n1,inactive: 43.5%,–
O=C(CCS(=O)(=O)c1ccccc1)N1CCN(c2cccc(C(F)(F)F)c2)CC1,inactive: -5.26%,–
Cc1cccc(C)c1-n1nnnc1C(=O)c1cccnc1,–,"inconclusive: 56.2 µM [inhibitor, partial curve, poor fit]"
Cc1ccc2c(CN3C(=O)c4ccccc4S3(=O)=O)cc(=O)oc2c1,–,"inconclusive: 50.1 µM [inhibitor, partial curve, poor fit]"
CC(=O)C1=C(O)C(=Cc2ccccc2)OC1=O,–,active: 14.1 µM
COc1ccc(C2(c3ccc(OC)cc3)C=Cc3c(c(O)cc4ccccc34)O2)cc1,–,"inconclusive: 25.1 µM [inhibitor, full curve, poor fit]"
CCc1ccc(C2CC(C(=O)NCc3ccccc3)CN(C(=O)c3ccoc3)C2)cc1 (stereo unspecified),–,"inconclusive: 25.1 µM [inhibitor, partial curve]"
C#CCOCCOCCOCCNc1nc(N2CCN(C(=O)CCCCCCCCCCNC(=O)[C@H](CO)n3cc(CCCSC)nn3)CC2)nc(N2CCN(C(=O)CCCCCCCCCCNC(=O)[C@H](CCCCN)n3cc(CCO)nn3)CC2)n1,–,"inconclusive: 44.7 µM [inhibitor, partial curve, poor fit]"
CCOC(=O)c1cc2cc(CC)ccc2[nH]1,inactive: 0.391%,–
O=C(O)c1ccc(CNCc2ccc(Cl)cc2Cl)cc1,–,"inconclusive: 15.8 µM [inhibitor, partial curve, poor fit]"
CN(C)Cc1ccccc1-c1nccc(NCc2cccs2)n1,–,"inconclusive: 3.16 µM [inhibitor, full curve, poor fit]"
CCOC(=O)c1c(CSc2ccsc2)n(C)c2cc(Br)c(O)c(CN(C)C)c12,–,"inconclusive: 100 µM [inhibitor, partial curve, poor fit]"
CCN(C1CCOCC1)C1CN(C(=O)c2cnccn2)C1,inactive: 43.3%,–
COc1ccc(S(=O)(=O)NC(CC(=O)NCc2ccco2)c2ccco2)cc1 (stereo unspecified),–,"inconclusive: 0.562 µM [inhibitor, full curve, poor fit]"
COc1ccc(NC2CCCN(C(=O)CCCS(N)(=O)=O)C2)cc1 (stereo unspecified),–,"inconclusive: 5.62 µM [inhibitor, partial curve, poor fit]"

SMILES,"activity change, negative = inhibition",Potency
CCN(CC)c1ccc(C(=O)NCc2ccc3c(c2)CCN3C(C)=O)cc1,–,"inconclusive: 141 µM [inhibitor, partial curve, poor fit]"
Cc1nc2ccccc2n1CCc1nc2c3ccccc3nc(SCC(=O)Nc3ccc(C(C)C)cc3)n2n1,–,"inconclusive: 126 µM [inhibitor, single point]"
CCCN(CCC)S(=O)(=O)c1ccc(C(=O)Nc2nnc(-c3cccc(OC)c3)o2)cc1,inactive: 30.5%,–
C[n+]1cc(-c2ccccc2)oc1-c1ccccc1,–,"inconclusive: 63.1 µM [inhibitor, partial curve, poor fit]"
O=C(Nc1nonc1-c1ccc(Br)cc1)c1ccco1,–,"inconclusive: 112 µM [inhibitor, partial curve, poor fit]"
C=CCNC(=O)NC(=O)CNc1cc(C(F)(F)F)cc(C(F)(F)F)c1,–,"inconclusive: 35.5 µM [inhibitor, partial curve, poor fit]"
COc1ccc(/C(O)=C2\C(=O)C(=O)N(Cc3cccnc3)C2c2ccccc2F)cc1 (stereo unspecified),–,"inconclusive: 5.62 µM [inhibitor, full curve, poor fit]"
COc1ccc(NC(=O)c2ccco2)cc1NC(=O)COc1ccc(C)cc1C,–,"inconclusive: 141 µM [inhibitor, single point]"
COc1ccc(CSc2nc3ccncc3n2Cc2ccc(OC)cc2)cc1,inactive: 7.61%,–
Cc1cccc(C)c1N1CCN(c2ccc3nnc(C(F)(F)F)n3n2)CC1,–,"inconclusive: 10 µM [inhibitor, partial curve, poor fit]"
O=C(CN(Cc1ccccc1Cl)C(=O)c1csnn1)NCc1ccc2c(c1)OCO2,–,"inconclusive: 44.7 µM [inhibitor, partial curve, poor fit]"
O=C(NCCc1ccccc1)C1CCN(C(=O)N2CCOc3ccccc32)CC1,inactive: -2.62%,–
CCN1C(=O)[C@H]2[C@@H](c3ccc(-c4ccccc4)cc3)N3CCC[C@@]3(C(=O)OC)[C@H]2C1=O,–,"inconclusive: 79.4 µM [inhibitor, single point]"
O=C(Cn1nc(-c2cccs2)ccc1=O)NC1CCCc2c1[nH]c1ccccc21 (stereo unspecified),–,"inconclusive: 44.7 µM [inhibitor, partial curve]"
Cc1ccc(NC(=O)Cc2ccc(NC(=O)N3CCCCc4ccccc43)cc2)cc1,–,"inconclusive: 89.1 µM [inhibitor, partial curve, poor fit]"
CCCOc1ccc(C(=O)C(CN2CCCC2)c2ccccc2)cc1 (stereo unspecified),inactive: -13.4%,–
Cc1ccc(C2Cn3cnc(C(=O)N4CCC(C(=O)NC(C)c5ccccc5)CC4)c3CO2)cc1 (stereo unspecified),inactive: 11.2%,–
Cc1cccc(C(=O)c2c(N)sc3c2CCCC3)c1,–,"inconclusive: 35.5 µM [inhibitor, partial curve]"
CC(/C=C/C=C/c1ccccc1)=N/NC(=O)CNc1ccccc1C,inactive: 0.879%,–
COc1ccc(NC(=S)N2CCC3CC2c2c(Cl)cccc23)c(OC)c1 (stereo unspecified),–,"inconclusive: 35.5 µM [inhibitor, partial curve, poor fit]"
